Screen size: about 340,000 compounds; about 4,500 (1.3%) were called active. This list was built around the results that the source calls inconclusive (neither active nor inactive); the mix of calls is not that of the screen. Calls come from the whole dose curve; as a rule, active = well fitted inhibition curve with a large enough effect; inconclusive = small, poorly fitted or top-dose-only effect, or another doubt; inactive = no such curve, though single readings can be large or run the other way. Potencies of inconclusive entries are doubtful fits and often do not repeat.
Each compound was assayed against DNA polymerase beta (Homo sapiens) (UniProt P06746) (assay: qHTS Assay for Inhibitors of DNA Polymerase Beta). Conditions: Pol beta primer extension/strand displacement, fluorescence kinetic; activity change, negative = inhibition: at 114 µM (top of the series).
How it was run: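 Enzyme-only controls used 10 nM Pol beta; buffer lacking enzyme served as negative control. Compound preincubated 15 min, then 50 nM substrate added; 0 and 10 min reads at room temperature.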
% is set by controls: 0 for no effect and ±100 for the full control effect; potency is the fitted concentration of half-maximal effect.

Compound	Potency	activity change, negative = inhibition
CS(=O)(=O)N1CCc2cc(S(=O)(=O)NCc3ccccc3Cl)ccc21	inconclusive: 79.4 µM [inhibitor, single point]	
COc1ccc(-c2nc(Cn3c(SCc4cccc(Cl)c4)nc4ccncc43)c(C)o2)cc1	inconclusive: 35.5 µM [inhibitor, full curve, poor fit]	
Cc1c(C)c2ccc(O[C@@H]3O[C@H](CO)[C@H](O)[C@H](O)[C@H]3O)cc2oc1=O		inactive: 6.22%
Cc1ccc(Sc2c(C)nn(C(=O)COc3ccccc3)c2C)cc1		inactive: 2.29%
CC(C)(C)C(=O)O/N=C(\N)COc1cccc(Cl)c1	inconclusive: 2 µM [inhibitor, full curve, poor fit]	
CC1=C(c2ccc(F)cc2)S(=O)(=O)N=C1N1CCC(C(=O)NCCc2ccco2)CC1	active: 25.1 µM	
CC1CCCCC12NC(=O)N(Cn1nnc3ccccc3c1=O)C2=O (stereo unspecified)	inconclusive: 35.5 µM [inhibitor, partial curve]	
CCNc1nc(SCCOc2ccc(Br)cc2)nc(N(C)C)n1	inconclusive: 0.355 µM [inhibitor, full curve, poor fit]	
O=C(CSc1ccc2nnc(-c3cccc(F)c3)n2n1)NCc1ccco1	active: 79.4 µM	
Cc1ccc(-c2cc(C(=O)N/N=C/C=C/c3ccccc3)n[nH]2)s1	inconclusive: 25.1 µM [inhibitor, single point]	
CCOC(=O)CCSc1nc(C)c2ccccc2n1	inconclusive: 89.1 µM [inhibitor, single point]	
Cc1nn(Cc2nc(-c3cccs3)no2)c(C)c1Br	active: 35.5 µM	
Cc1ccc(NS(=O)(=O)c2ccc(C)c(NC(=O)COc3ccccc3)c2)c(C)c1	inconclusive: 39.8 µM [inhibitor, single point]	
O=C(Nc1ccc(Cl)cc1)N1CCSC1=NCc1ccccc1	inconclusive: 100 µM [inhibitor, single point]	
COc1cc(NC(=O)CSc2nc3[nH]ncc3c(=O)n2-c2ccc(Cl)cc2)cc(OC)c1		inactive: 2.8%
CCCNC(=O)C(=O)NCC(c1ccc2c(c1)OCO2)N1CCOCC1 (stereo unspecified)		inactive: 6.1%
COc1ccc(OCc2ccc(-c3nc(C#N)c(N4CCC(C)CC4)o3)o2)cc1	inconclusive: 89.1 µM [inhibitor, single point]	
COc1ccc(CCNC(=O)C2CCN(C(=O)NC3CCCCC3)CC2)cc1	inconclusive: 89.1 µM [inhibitor, single point]	
Cc1ccc(C)c(N2C(=N)S/C(=C\c3ccc(-c4ccccc4C(=O)O)o3)C2=O)c1	inconclusive: 89.1 µM [inhibitor, single point]	
COC(=O)c1cc(/C=C/c2ccccc2)[nH]n1	inconclusive: 89.1 µM [inhibitor, single point]	
O=c1c2cc(-c3ccccc3)sc2nc2n1N=C(c1cccs1)CS2	inconclusive: 3.16 µM [inhibitor, full curve, poor fit]	
Cc1ccc(NS(=O)(=O)c2c(C)[nH]c(C)c2C(=O)N2CCCCC2)cc1F	inconclusive: 0.316 µM [inhibitor, full curve, poor fit]	
N#CCC(N)=C(C#N)C#N		inactive: 29.1%

Complete entries from above.
COc1ccc(OCc2ccc(-c3nc(C#N)c(N4CCC(C)CC4)o3)o2)cc1 as listed: Potency: inconclusive: 89.1 µM [inhibitor, single point]
COc1cc(NC(=O)CSc2nc3[nH]ncc3c(=O)n2-c2ccc(Cl)cc2)cc(OC)c1 as listed: activity change, negative = inhibition: inactive: 2.8%
CC1=C(c2ccc(F)cc2)S(=O)(=O)N=C1N1CCC(C(=O)NCCc2ccco2)CC1 as listed: Potency: active: 25.1 µM

(next part)

Compound	Potency	activity change, negative = inhibition
Cn1c(=O)[nH]c(=O)c2c1nc(NCCCn1ccnc1)n2Cc1ccc(F)cc1	inconclusive: 79.4 µM [inhibitor, single point]	
CCC(=O)N1CCc2cc(Br)cc(S(=O)(=O)CCC(=O)N3CCN(c4ccccc4OC)CC3)c21		inactive: 14.4%
COc1ccccc1N1CCN(S(=O)(=O)c2ccc3[nH]c4c(c3c2)CCCC4)CC1	inconclusive: 89.1 µM [inhibitor, single point]	
COc1ccc(NC(=O)NNC(=O)c2ccc(-c3ccccc3)cc2)cc1	active: 7.94 µM	
O=C(O)COc1ccc(Br)cc1/C=N/O	active: 25.1 µM	
COc1ccc(CC(=O)Nc2nnc(SCC(=O)NCc3ccco3)s2)cc1OC	inconclusive: 28.2 µM [inhibitor, full curve]	
Cn1c(SCC(=O)Nc2cc(Cl)cc(Cl)c2)nnc1-c1ccc2nonc2c1		inconclusive: -61.8% [inhibitor]
O=C(N/N=C/c1c[nH]c2ccccc12)c1ccc(O)c(O)c1	active: 44.7 µM	
COc1ccc(C(=O)OCC(=O)c2cc(OC)ccc2OC)c(OC)c1		inactive: 14.2%
COc1ccc(/C=N/NC(=O)c2ccc(Cl)c(S(N)(=O)=O)c2)cc1OCC(N)=O		inactive: -24.5%
O=C1C(NS(=O)(=O)c2ccccc2)=C(N2CCN(c3ccc(F)cc3)CC2)C(=O)c2ccccc21		inconclusive: -36% [inhibitor]
CC(C)(C)C(=O)NCCc1nc2ccccc2n1CCCCOc1ccc(Cl)cc1	inconclusive: 89.1 µM [inhibitor, single point]	
CCC(CC)COC(=O)C1=C(C)NC(=O)NC1c1ccc2c(c1)OCO2 (stereo unspecified)	inconclusive: 3.98 µM [inhibitor, single point]	
Cc1ccc2c(c1)-c1nc(-c3ccc4c(c3)NC(=O)CO4)cc(-c3ccc(Cl)cc3)c1CO2	inconclusive: 89.1 µM [inhibitor, single point]	
Oc1ccc(N=Cc2ccc(O)c(O)c2)cc1	inconclusive: 89.1 µM [inhibitor, single point]	
Cc1ccc(C)c(OCCn2cc(C(=O)c3ccco3)c3ccccc32)c1	inconclusive: 4.47 µM [inhibitor, full curve, poor fit]	
COc1ccc2c(CC(=O)OCC(=O)N3CCc4ccccc43)coc2c1	inconclusive: 1.12 µM [inhibitor, full curve]	
COc1ccccc1C(=O)NC1(C(F)(F)F)C(=O)Nc2c1c(=O)[nH]c(=O)n2-c1ccccc1 (stereo unspecified)		inactive: 13.1%
Cc1ccc(C)c(Nc2nc3c(S(=O)(=O)c4ccc(C(C)C)cc4)nnn3c3ccsc23)c1		inactive: 1.04%
Cc1ccc(CSc2nnc(-c3cccnc3)o2)cc1		inactive: 2.62%
CCOC(=O)N1C(=O)[C@@](CC)(c2ccccc2)N1C(=O)OCC		inactive: 80.2%
COC(=O)c1nc(NC(=O)c2ccc(Br)cc2)n[nH]1		inactive: 12.8%
COC(=O)c1c(Oc2ccc(C(C)=O)cc2)nnc(-c2ccccc2)c1-c1ccccc1		inactive: 27.5%
